Assay results reported in article PMC7225089, “A long lost key opens an ancient lock: Drosophila Myb causes a synthetic multivulval phenotype in nematodes” (Biology Open, 2020).
No constants are given. Whether binding was seen depends on the method and setting. Some entries that bind do so weakly or less than the wild type. For some assays here: Sequences can lack the tags named with a protein.

T1: C. elegans LIN9-LIN52 heterodimeric Myb-binding domain complex (C. elegans) (UniProt P30630+Q10120)
T1 sequence 1: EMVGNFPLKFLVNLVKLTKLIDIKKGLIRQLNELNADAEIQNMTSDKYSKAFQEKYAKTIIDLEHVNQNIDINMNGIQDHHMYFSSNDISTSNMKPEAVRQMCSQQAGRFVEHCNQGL
T1 sequence 2: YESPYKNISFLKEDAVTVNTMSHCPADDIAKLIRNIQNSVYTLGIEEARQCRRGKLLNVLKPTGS

T2: C. elegans LIN52 Myb-binding domain (residues 75-139), GST fusion (C. elegans) (UniProt Q10120)
T2 sequence: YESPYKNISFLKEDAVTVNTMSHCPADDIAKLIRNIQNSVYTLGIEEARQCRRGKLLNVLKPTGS


How the values were obtained:
[1] = molecular target: T1, C. elegans LIN9-LIN52 heterodimeric Myb-binding domain complex (C. elegans); assay: condition: Myb fragment ~500 μM in the syringe, LIN9-LIN52 ~25–50 μM; ITC; Myb fragment (~500 μM) in the syringe injected into LIN9-LIN52 heterodimer (~25–50 μM) at 25°C; 20 mM Tris, 150 mM NaCl, 1 mM beta mercaptoethanol, pH 8.0; MicroCal VP-ITC; triplicate; both purified
[2] = molecular target: T2, C. elegans LIN52 Myb-binding domain (residues 75-139), GST fusion (C. elegans); assay: co-purification; untagged LIN9 co-expressed in E. coli with GST-LIN52; heterodimer purified on glutathione-sepharose (40 mM Tris, 150 mM NaCl, 1 mM DTT, pH 8.0), anion exchange, TEV cleavage, Superdex 200

Row | binding [1] | binding [2] | Binder
1 | no binding |  | VIDPKWARVACGKSRAAMFMEEQAYACLKNL (domain or fragment, UniProt P04197 602-632)
2 |  | binds | C. elegans LIN9 Myb-binding domain (residues 442-559) (domain or fragment, UniProt P30630 442-559) EMVGNFPLKFLVNLVKLTKLIDIKKGLIRQLNELNADAEIQNMTSDKYSKAFQEKYAKTIIDLEHVNQNIDINMNGIQDHHMYFSSNDISTSNMKPEAVRQMCSQQAGRFVEHCNQGL
